These are yes or no findings as the source states them, for the method shown. Binding seen in cells or lysates may run through a third protein.
Biological target: T1, Transglutaminase 2 (human) (UniProt P21980)
T1 sequence: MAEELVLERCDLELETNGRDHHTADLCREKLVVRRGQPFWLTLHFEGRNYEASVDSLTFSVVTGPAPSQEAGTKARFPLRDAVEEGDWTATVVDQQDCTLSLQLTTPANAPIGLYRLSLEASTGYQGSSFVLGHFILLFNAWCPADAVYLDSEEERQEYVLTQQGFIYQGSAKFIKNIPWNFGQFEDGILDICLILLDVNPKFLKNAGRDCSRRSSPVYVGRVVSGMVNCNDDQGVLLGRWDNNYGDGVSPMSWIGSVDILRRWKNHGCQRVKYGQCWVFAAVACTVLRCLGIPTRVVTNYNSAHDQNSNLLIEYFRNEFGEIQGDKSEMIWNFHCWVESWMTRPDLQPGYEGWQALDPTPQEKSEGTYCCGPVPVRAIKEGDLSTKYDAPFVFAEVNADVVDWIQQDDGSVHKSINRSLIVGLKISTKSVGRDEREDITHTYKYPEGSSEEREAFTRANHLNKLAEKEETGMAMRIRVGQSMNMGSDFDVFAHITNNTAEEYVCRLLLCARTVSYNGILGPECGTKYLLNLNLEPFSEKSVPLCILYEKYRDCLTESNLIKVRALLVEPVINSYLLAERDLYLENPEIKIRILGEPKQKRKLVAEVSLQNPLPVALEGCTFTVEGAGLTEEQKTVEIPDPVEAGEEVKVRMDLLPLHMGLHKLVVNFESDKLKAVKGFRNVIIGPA
Test: co-IP; MCF7_TG2 cells treated with IL-1β (10 ng/ml) for 30 min; cell lysates immunoprecipitated with anti-TG2 antibody; TG2, IRAK1, TRAF6 and MyD88 detected by Western blot

By UniProt entry, the sequences of proteins in these tests, tags left out.
UniProt Q99836: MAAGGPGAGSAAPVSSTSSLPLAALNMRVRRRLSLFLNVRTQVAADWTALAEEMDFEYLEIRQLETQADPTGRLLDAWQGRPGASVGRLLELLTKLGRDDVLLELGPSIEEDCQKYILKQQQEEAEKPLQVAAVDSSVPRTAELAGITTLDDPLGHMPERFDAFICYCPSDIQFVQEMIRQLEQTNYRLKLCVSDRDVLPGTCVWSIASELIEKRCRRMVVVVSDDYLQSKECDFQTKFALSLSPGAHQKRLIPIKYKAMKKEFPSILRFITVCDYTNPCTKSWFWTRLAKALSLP
UniProt P51617: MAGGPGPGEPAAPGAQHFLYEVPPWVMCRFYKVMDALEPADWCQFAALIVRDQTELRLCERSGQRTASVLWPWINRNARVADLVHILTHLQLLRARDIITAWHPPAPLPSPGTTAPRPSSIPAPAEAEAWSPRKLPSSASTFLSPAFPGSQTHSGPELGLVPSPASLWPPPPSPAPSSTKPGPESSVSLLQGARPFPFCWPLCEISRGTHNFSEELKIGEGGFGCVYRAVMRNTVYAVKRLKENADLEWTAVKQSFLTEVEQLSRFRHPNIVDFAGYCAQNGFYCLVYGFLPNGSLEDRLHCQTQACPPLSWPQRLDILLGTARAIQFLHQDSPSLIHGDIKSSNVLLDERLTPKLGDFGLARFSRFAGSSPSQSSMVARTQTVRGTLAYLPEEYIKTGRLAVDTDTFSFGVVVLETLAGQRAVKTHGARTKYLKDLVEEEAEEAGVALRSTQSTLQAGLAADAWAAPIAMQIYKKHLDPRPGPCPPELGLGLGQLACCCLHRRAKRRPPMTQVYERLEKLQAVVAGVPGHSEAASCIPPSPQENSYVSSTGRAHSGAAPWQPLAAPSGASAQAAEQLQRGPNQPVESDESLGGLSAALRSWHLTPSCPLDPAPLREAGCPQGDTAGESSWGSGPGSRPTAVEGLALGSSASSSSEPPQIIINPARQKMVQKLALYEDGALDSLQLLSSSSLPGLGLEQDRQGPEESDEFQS

| Substance | binding |
| --- | --- |
| MyD88 (from UniProt Q99836 1-296) | no binding |
| IRAK1 (from UniProt P51617 1-712) | no binding |
